# These are yes or no findings as the source states them, for the method shown. Binding can be weak; no strength is given.
# The chains behind the UniProt entries cited, without tags or fusion partners. Where a name states a change or a piece, a line headed by the entry shows the natural chain unless it says otherwise.
# UniProt Q5ZPR3: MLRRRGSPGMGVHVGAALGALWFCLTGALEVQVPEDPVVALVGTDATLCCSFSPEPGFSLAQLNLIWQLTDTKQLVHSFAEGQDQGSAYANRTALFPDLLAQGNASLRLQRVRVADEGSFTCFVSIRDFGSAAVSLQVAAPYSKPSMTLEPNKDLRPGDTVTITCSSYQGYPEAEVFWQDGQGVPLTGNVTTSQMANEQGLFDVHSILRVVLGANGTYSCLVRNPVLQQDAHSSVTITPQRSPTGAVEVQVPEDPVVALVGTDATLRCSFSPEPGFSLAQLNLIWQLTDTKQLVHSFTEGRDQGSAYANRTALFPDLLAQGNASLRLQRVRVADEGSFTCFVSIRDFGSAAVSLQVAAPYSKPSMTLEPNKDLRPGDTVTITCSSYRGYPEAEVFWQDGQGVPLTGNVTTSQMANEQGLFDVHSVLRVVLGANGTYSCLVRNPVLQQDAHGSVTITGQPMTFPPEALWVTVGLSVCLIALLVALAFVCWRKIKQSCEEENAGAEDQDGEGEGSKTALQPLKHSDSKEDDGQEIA
# Biological target: recombinant human B7-H3 protein with C-terminal histidine tag (R&D Systems 2318-B3/CF) (human) (UniProt Q5ZPR3)
# Assay: ELISA of soluble scFv on coated B7-H3-His; clones with absorbance at 450 nm of 1.0 or more
row,Binder,binding
1,"B5 soluble monoclonal scFv (phage library clone) (scFv, V domains shown) VH: EVQLLESGGGLVQPGGSLRLSCAASGFTFSDYAMSWVRQAPGKGLEWVSSISSGSGSIYYADSVKGRFTISRDNSKNTLYLQMNSLRAEDTAVYYCAKNLIPLDYWGQGTLVTVSS VL: QSVLTQPPSASGTPGQRVTISCSGSSSNIGSNAVSWYQQLPGTAPKLLIYYNSHRPSGVPDRFSGSKSGTSASLAISGLRSEDEADYYCGSWDASLNAYVFGGGTKLTVL",binds
2,"C4I soluble monoclonal scFv (phage library clone) (scFv, V domains shown) VH: EVQLLESGGGLVQPGGSLRLSCAASGFTFSGYYMSWVRQAPGKGLEWVSLISPSSGSIYYADSVKGRFTISRDNSKNTLYLQMNSLRAEDTAVYYCAKGLTKFDYWGQGTLVTVSS VL: QSVLTQPPSASGTPGQRVTISCTGSSSNIGSNDVSWYQQLPGTAPKLLIYANSHRPSGVPDRFSGSKSGTSASLAISGLRSEDEADYYCGSWDDSLSGYVFGGGTKLTVL",binds
3,"D8G soluble monoclonal scFv (phage library clone) (scFv, V domains shown) VH: EVQLLESGGGLVQPGGSLRLSCAASGFTFSSYSMSWVRQAPGKGLEWVSGIYSDGSNTYYADSVKGRFTISRDNSKNTLYLQMNSLRAEDTAVYYCAKMLHRFDYWGQGTLVTVSS VL: QSVLTQPPSASGTPGQRVTISCSGSSSNIGSNSVTWYQQLPGTAPKLLIYADSQRPSGVPDRFSGSKSGTSASLAISGLRSEDEADYYCGTWDSSLNAYVFGGGTKLTVL",binds
4,"F6V soluble monoclonal scFv (phage library clone) (scFv, V domains shown) VH: EVQLLESGGGLVQPGGSLRLSCAASGFTFSDYAMSWVRQAPGKGLEWVSGISPGGSNTYYADSVKGRFTISRDNSKNTLYLQMNSLRAEDTAVYYCAKDAWIARLLLFDYWGQGTLVTVSS VL: QSVLTQPPSASGTPGQRVTISCSGSSSNIGSNAVTWYQQLPGTAPKLLIYYNNKRPSGVPDRFSGSKSGTSASLAISGLRSEDEADYYCGTWDDSLSGYVFGGGTKLTVL",binds
5,"10F11 soluble monoclonal scFv (phage library clone) (scFv, V domains shown) VH: EVQLLESGGGLVQPGGSLRLSCAASGFTFSSYGMSWVRQAPGKGLEWVSGIYSGGSSKYYADSVKGRFTISRDNSKNTLYLQMNSLRAEDTAVYYCAKNRLRFDYWGQGTLVTVSS VL: QSVLTQPPSASGTPGQRVTISCTGSSSNIGSNSVTWYQQLPGTAPKLLIYSDSHRPSGVPDRFSGSKSGTSASLAISGLRSEDEADYYCGTWDASLNAYVFGGGTKLTVL",binds
6,"D8G M1 soluble monoclonal scFv (phage library clone) (scFv, V domains shown) VH: EVQLLESGGGLVQPGGSLRLSCAASGFTFSSYSMSWVRQAPGKGLEWVSGIYSDASNTYYADSVKGRFTISRDNSKNTLYLQMNSLRAEDTAVYYCAKMLHRFDYWGQGTLVTVSS VL: QSVLTQPPSASGTPGQRVTISCSGSSSNIGSNSVTWYQQLPGTAPKLLIYADSQRPSGVPDRFSGSKSGTSASLAISGLRSEDEADYYCGTWDSSLNAYVFGGGTKLTVL",binds
7,"D8G M3 soluble monoclonal scFv (phage library clone) (scFv, V domains shown) VH: EVQLLESGGGLVQPGGSLRLSCAASGFTFSSYSMSWVRQAPGKGLEWVSGIYSDASNTYYADSVKGRFTISRDNSKNTLYLQMNSLRAEDTAVYYCAKMLHRFDYWGQGTLVTVSS VL: QSVLTQPPSASGTPGQRVTISCSGSSSNIGSNSVTWYQQLPGTAPKLLIYADVQRPSGVPDRFSGSKSGTSASLAISGLRSEDEADYYCGTWDSSLNAYVFGGGTKLTVL",binds

# From patent US20230192861A1
